# Some of the results follow. Shown are side measurements of this screen, not its main read-out; they come without a call. Most of these compounds were active or inconclusive in the main read-out, so they are no random draw. Words in brackets tell the shape of the fitted curve; partial curves, single points and poor fits give uncertain potencies.
# Experiment: qHTS Assay to Find Inhibitors of Chronic Active B-Cell Receptor Signaling
# Conditions: ABC-DLBCL IkBa-CBG/CBR reporter, luminescence ratio (green luciferase fused to IkBa over red control in TMD8 lymphoma cells), 4 h
# How it was run: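 TMD8 ABC-DLBCL cells carrying doxycycline-inducible green luciferase fused to IkappaBalpha plus unfused red luciferase were exposed to compounds (up to 46 uM) for 4 hrs at 37C. Activity came from the overlap-corrected green/red luminescence ratio.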
# [1] = measured here: CBR red luminescence, cell number
# [2] = measured here: IkBa-CBG green luminescence
Structure (SMILES),AC50 [1],AC50 [2]
CC1CCN(S(=O)(=O)N2CCC(C(=O)NCc3ccc4c(c3)OCO4)CC2)CC1,"13 µM [rising, partial curve, poor fit]",–
Cc1c(C(=O)N(C)CCOc2ccccc2)oc2c(Cl)cccc12,"5.17 µM [rising, full curve, poor fit]",–
NS(=O)(=O)c1ccc(CCNS(=O)(=O)c2ccc(Cl)nc2)cc1,"20 µM [rising, single point]",–
CCNc1c(NS(=O)(=O)c2ccc(OC)c(Cl)c2)c(=O)oc2ccccc12,"20 µM [falling, single point]",–
O=C(Nc1ccccn1)c1ccc([N+](=O)[O-])cc1Cl,"29.1 µM [rising, single point]",–
COc1cc(/C=C/C(=O)OCC(=O)N2CCN(S(=O)(=O)c3ccc(C)cc3C)CC2)cc(Cl)c1OC,"3.66 µM [rising, partial curve, poor fit]",–
O=C(NC(=S)Nc1ccc2oc(=O)ccc2c1)c1ccco1,"4.47 µM [rising, partial curve, poor fit]",–
COc1cc(CN2CCNC(=O)C2CC(=O)NC2CCCCC2)cc(OC)c1 (centres undefined),"11.2 µM [falling, partial curve, poor fit]",–
Cc1cc(N2CC(C)OC(C)C2)n2cc(-c3ccccc3)nc2n1 (centres undefined),"35.5 µM [falling, single point]",–
COc1cc(OC)cc(C(=O)Nc2nc(CC(=O)NCc3ccccc3OC)cs2)c1,"29.1 µM [falling, single point]",–
COc1ccc(S(=O)(=O)N2CCN(C(=O)c3cccc(Cl)c3)CC2)cc1,"29.1 µM [falling, single point]","29.1 µM [rising, partial curve, poor fit]"
COc1ccc(N(C(=O)c2ccncc2)S(=O)(=O)c2ccc(Cl)cc2)cc1,"7.94 µM [falling, partial curve, poor fit]",–
CC(=O)NS(=O)(=O)c1ccc(NC(=S)NC(=O)C(C)C)cc1,"29.1 µM [rising, single point]",–
O=C(CNC(=O)c1cccs1)NCC(=O)OCc1ccccc1Br,"5.62 µM [rising, full curve]",–
Cc1sc2nc(SCC(=O)Nc3cccc(C(=O)O)c3)[nH]c(=O)c2c1C,"11.6 µM [falling, partial curve]",–
CN1CCN(C(=O)c2cc(-c3cccc(Cl)c3)on2)CC1,"1.78 µM [rising, partial curve, poor fit]",–
CC1CN(C(=O)CSc2nc(-c3ccccc3)cs2)CC(C)O1 (centres undefined),"25.9 µM [rising, single point]",–
Cc1ccccc1NC(=S)N(CCc1c(C)[nH]c2ccc(F)cc12)Cc1ccncc1,"35.5 µM [falling, single point]",–
COc1ccccc1NS(=O)(=O)c1cccc(NC(=O)Nc2cccc(Cl)c2)c1,"8.2 µM [falling, partial curve, poor fit]",–
COC(CN(C)C(=O)c1cn(C)c2ccc(S(=O)(=O)N(C)C3CCCCC3)cc2c1=O)OC,"35.5 µM [rising, partial curve, poor fit]",–

# Two compounds picked at random from the list so far, as already listed:
Structure (SMILES),AC50 [1],AC50 [2]
COc1cc(/C=C/C(=O)OCC(=O)N2CCN(S(=O)(=O)c3ccc(C)cc3C)CC2)cc(Cl)c1OC,"3.66 µM [rising, partial curve, poor fit]",–
CC1CN(C(=O)CSc2nc(-c3ccccc3)cs2)CC(C)O1 (centres undefined),"25.9 µM [rising, single point]",–

# Continued.

Structure (SMILES),AC50 [1],AC50 [2]
COc1ccc(S(=O)(=O)Nc2cc(C(=O)NC(C)C)ccc2N2CCOCC2)cc1,"18.4 µM [rising, single point]","29.1 µM [falling, single point]"
COc1ccc(NC(=O)c2cc(=O)c3ccccc3o2)cn1,"14.1 µM [rising, partial curve, poor fit]",–
CN(CC(=O)Nc1ccccc1Br)C(=O)c1n[nH]c2ccccc12,"0.82 µM [falling, full curve]",–
CC(C)CC(=O)NS(=O)(=O)c1ccc(NS(C)(=O)=O)cc1,"10 µM [rising, partial curve, poor fit]",–
CN(C(=O)c1ccc2c(c1)OCO2)C1(C(=O)NC2CCCC2)CCCCC1,"29.1 µM [falling, single point]",–
O=C(O)C(Cc1ccccc1)N1C(=O)c2ccccc2C1=O (centres undefined),"23.1 µM [rising, single point]",–
CCOC(=O)c1ccc(NC(=O)Nc2ccon2)cc1,"3.16 µM [rising, single point]","2.82 µM [falling, full curve]"
CN(C)CCCN1c2ccccc2Sc2ccc(Cl)cc21,"15.8 µM [falling, single point]",–
COc1ccc(NC(=S)N=Nc2c(O)[nH]c3ccccc23)cc1,"12.6 µM [rising, partial curve]","4.47 µM [falling, full curve]"
CCOc1cc(/C=C/C(=O)c2ccc3c(c2)OCCO3)ccc1OCC(=O)N(C)C,"7.94 µM [falling, partial curve]",–
CC1CC(C)CN(S(=O)(=O)c2ccc(C(=O)N(c3ccccn3)C3CCCCC3)cc2)C1 (centres undefined),"25.1 µM [falling, partial curve, poor fit]",–
CCOC(=O)Cc1csc(NC(=O)C(CC(C)C)NC(=O)C2CCCCC2)n1 (centres undefined),"35.5 µM [rising, single point]",–
O=C(NN=C1CCCCCC1)c1cn(-c2ccccc2)nc1-c1ccccc1,"6.51 µM [rising, single point]",–
CC(C)CC(=O)Nc1nc2c(c(=O)[nH]1)CCCC2,"8.2 µM [falling, partial curve, poor fit]",–
Nc1nc(-c2cccs2)c(NC(=O)c2ccccc2)s1,"28.2 µM [falling, single point]",–
CCn1c(O)c(C2=NCCCC2)c2ccccc21,"15.8 µM [falling, single point]",–
O=C(CN1C(=O)NC2(CCCCCC2)C1=O)c1ccc(Cl)cc1,"2.31 µM [rising, full curve, poor fit]",–
N#Cc1ccccc1NC(=O)CN1CCN(Cc2ccccc2)CC1,"6.31 µM [rising, single point]",–
C(/CCc1ccccc1)=N\Nc1nc2ccccc2[nH]1,"25.1 µM [falling, single point]",–
O=C(NC(=S)NCCC1=CCCCC1)c1ccco1,"0.112 µM [rising, full curve, poor fit]",–

# — PubChem BioAssay AID493014 (National Center for Advancing Translational Sciences (NCATS), 2011)
